# doi:10.1101/2024.04.02.587808
# Sequences of proteins named here, by UniProt entry; tags and fusion partners are left off.
# UniProt P61026: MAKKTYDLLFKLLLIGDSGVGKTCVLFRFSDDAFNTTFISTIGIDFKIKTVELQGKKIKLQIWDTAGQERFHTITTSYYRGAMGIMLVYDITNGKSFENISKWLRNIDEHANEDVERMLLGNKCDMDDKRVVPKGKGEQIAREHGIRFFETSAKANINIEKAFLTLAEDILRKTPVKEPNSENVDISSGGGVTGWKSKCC
# No constants are given. Whether binding was seen depends on the method and setting. Binding seen in cells or lysates may run through a third protein. Some results given as binding are weak or reduced against the parent protein; the word gives no strength.
# How the values were obtained:
# [1] = target: T1, mCherry-RILPL1 (RILP-like protein 1) (UniProt Q5EBL4); assay: co-IP; HEK293FT cells transfected with 3xflag-LRRK2 and mCherry-RILPL1 for 24 h, treated or not with LLOME (1 mM, 2 h); lysate (150 mM NaCl, 0.3% Triton X-100) on RFP-Trap magnetic beads, 1 h, 4°C; washes with 300 mM NaCl, 0.1% Triton X-100; immunoblot
# T1 sequence: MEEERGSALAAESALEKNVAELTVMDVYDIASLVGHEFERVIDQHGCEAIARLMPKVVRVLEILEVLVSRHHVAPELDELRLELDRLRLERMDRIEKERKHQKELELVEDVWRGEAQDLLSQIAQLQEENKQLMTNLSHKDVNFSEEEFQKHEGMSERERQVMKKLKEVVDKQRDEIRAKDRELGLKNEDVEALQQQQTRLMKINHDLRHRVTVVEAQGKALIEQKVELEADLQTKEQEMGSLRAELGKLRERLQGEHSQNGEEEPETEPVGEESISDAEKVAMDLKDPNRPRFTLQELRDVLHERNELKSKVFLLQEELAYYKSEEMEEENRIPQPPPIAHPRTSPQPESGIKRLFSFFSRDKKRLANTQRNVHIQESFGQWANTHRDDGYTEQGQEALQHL
# [2] = target: T1, mCherry-RILPL1 (RILP-like protein 1); assay: co-IP; U2OS cells transfected with 3xflag-LRRK2 and mCherry-RILPL1; lysate on RFP-Trap magnetic beads, 1 h, 4°C; washes with 300 mM NaCl, 0.1% Triton X-100; immunoblot
binding [1],binding [2],Substance
binds,,"p150^Glued (DCTN1), dynactin subunit (from UniProt Q14203-1 1-1278)"
binds,binds,pRAB10 (RAB10 phosphorylated at T73) (from UniProt P61026 1-200)
